Data reported in the supplement of paper PMC10849652.
Some of the results follow.

The chains behind the UniProt entries cited, without tags or fusion partners. Where a name states a change or a piece, a line headed by the entry shows the natural chain unless it says otherwise.
UniProt Q7Z3V4: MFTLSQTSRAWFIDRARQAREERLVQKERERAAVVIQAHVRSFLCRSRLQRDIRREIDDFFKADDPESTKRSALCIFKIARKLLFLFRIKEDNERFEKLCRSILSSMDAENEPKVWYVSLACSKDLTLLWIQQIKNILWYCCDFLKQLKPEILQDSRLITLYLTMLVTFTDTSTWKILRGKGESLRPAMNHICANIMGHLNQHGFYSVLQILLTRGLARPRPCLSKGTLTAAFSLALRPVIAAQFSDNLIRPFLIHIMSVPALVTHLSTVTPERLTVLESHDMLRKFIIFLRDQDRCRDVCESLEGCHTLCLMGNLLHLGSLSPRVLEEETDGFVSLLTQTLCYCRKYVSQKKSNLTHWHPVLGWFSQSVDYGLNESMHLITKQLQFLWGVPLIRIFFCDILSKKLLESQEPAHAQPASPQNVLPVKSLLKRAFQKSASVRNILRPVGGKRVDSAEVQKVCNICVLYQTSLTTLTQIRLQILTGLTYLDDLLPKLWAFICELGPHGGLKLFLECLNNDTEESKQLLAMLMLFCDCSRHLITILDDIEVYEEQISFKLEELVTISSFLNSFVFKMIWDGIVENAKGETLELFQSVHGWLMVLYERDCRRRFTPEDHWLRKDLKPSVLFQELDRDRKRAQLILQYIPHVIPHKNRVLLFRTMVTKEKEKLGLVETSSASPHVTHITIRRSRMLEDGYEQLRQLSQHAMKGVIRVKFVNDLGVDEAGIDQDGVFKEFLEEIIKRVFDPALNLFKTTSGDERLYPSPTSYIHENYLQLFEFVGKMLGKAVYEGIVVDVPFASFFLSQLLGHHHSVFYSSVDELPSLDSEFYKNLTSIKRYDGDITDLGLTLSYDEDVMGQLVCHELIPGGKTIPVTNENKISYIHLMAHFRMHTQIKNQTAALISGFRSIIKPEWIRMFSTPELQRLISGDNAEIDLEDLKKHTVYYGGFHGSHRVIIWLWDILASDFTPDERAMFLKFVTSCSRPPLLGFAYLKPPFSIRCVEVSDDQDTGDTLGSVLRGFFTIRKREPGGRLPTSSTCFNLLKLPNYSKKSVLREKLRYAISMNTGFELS
UniProt Q6IPR3: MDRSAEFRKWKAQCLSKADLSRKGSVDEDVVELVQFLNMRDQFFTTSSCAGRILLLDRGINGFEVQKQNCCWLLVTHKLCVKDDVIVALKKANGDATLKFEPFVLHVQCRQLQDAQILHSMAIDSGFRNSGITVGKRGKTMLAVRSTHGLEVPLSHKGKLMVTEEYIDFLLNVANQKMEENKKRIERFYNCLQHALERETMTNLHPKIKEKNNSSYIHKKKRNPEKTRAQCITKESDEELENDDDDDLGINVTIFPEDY
UniProt Q5VYS8: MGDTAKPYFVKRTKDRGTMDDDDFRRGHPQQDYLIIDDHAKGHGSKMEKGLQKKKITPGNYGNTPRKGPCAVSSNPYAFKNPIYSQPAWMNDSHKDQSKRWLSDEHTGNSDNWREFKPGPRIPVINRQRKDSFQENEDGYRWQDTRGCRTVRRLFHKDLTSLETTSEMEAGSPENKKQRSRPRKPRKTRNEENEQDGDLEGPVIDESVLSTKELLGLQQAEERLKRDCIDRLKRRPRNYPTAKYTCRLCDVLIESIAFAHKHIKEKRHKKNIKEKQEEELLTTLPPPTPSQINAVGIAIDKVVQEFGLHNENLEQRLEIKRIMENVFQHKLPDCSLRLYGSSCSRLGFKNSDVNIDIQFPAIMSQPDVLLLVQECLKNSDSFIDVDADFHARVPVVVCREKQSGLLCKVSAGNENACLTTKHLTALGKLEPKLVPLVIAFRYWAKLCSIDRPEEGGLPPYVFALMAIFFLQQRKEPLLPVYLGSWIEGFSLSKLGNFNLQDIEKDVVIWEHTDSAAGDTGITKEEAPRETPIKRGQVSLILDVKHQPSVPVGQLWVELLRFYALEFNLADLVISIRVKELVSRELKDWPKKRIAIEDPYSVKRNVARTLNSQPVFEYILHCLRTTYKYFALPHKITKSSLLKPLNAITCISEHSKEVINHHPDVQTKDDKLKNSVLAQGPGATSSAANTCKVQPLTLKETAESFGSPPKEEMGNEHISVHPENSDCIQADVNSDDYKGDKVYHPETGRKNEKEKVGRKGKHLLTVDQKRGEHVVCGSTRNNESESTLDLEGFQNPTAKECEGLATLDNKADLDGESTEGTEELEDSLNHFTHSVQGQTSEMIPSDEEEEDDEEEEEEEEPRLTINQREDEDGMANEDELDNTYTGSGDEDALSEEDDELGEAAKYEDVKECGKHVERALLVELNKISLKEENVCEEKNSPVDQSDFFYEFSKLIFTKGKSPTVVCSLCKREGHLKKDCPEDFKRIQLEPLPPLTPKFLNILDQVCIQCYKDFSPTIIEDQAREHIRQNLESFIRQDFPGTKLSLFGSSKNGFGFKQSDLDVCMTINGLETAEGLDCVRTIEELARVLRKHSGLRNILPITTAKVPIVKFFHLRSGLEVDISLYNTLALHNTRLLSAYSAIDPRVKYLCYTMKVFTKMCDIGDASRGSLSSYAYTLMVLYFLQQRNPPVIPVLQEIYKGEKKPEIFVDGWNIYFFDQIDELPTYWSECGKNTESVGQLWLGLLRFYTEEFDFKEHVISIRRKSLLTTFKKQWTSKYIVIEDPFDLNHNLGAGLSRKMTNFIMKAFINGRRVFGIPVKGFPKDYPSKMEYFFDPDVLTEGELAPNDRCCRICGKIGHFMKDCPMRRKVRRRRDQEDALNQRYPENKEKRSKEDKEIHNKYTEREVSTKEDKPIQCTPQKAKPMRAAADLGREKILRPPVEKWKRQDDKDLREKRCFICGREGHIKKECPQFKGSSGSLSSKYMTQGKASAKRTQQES
UniProt P61077: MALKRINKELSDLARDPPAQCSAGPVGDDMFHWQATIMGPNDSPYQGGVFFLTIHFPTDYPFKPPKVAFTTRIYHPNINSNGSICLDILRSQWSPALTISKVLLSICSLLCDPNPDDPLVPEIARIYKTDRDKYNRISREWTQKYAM
UniProt O95881: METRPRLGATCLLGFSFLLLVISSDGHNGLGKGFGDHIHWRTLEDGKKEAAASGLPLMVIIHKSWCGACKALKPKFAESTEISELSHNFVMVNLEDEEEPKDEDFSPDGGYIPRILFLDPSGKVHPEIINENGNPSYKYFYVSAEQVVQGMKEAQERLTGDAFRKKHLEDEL
UniProt O14562: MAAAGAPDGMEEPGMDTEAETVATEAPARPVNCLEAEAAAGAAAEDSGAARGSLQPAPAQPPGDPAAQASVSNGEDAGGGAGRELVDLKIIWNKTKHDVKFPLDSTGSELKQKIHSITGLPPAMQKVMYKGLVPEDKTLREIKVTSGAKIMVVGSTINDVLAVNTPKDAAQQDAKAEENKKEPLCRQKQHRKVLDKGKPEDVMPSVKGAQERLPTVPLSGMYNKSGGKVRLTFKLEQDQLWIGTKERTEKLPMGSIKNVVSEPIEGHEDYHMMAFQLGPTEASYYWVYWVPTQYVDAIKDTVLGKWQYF
UniProt Q9H4B7, whole entry, looked up: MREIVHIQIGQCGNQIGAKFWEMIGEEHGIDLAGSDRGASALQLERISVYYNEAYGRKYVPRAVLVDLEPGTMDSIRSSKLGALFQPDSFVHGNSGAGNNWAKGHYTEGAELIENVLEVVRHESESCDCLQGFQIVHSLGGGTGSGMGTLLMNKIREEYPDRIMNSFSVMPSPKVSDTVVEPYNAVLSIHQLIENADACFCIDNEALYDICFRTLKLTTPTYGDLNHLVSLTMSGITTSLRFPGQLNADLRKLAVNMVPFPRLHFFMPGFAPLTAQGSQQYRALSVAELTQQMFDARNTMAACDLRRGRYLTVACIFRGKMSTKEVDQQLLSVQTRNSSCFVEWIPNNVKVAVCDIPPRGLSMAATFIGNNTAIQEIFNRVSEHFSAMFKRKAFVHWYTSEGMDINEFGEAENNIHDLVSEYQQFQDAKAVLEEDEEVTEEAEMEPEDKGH
UniProt Q9BQE3, whole entry, looked up: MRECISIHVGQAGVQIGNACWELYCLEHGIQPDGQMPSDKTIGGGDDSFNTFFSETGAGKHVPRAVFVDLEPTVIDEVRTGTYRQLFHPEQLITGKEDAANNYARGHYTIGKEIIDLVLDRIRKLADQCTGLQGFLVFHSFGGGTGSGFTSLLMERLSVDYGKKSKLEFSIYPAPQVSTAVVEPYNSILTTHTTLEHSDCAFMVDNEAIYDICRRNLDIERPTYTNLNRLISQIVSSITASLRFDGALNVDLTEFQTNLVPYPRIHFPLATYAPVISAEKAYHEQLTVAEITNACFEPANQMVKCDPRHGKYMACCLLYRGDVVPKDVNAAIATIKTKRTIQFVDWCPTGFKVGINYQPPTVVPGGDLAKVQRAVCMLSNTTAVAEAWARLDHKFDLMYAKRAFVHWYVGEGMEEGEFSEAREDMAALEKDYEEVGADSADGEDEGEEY
UniProt Q96RT7, whole entry, looked up: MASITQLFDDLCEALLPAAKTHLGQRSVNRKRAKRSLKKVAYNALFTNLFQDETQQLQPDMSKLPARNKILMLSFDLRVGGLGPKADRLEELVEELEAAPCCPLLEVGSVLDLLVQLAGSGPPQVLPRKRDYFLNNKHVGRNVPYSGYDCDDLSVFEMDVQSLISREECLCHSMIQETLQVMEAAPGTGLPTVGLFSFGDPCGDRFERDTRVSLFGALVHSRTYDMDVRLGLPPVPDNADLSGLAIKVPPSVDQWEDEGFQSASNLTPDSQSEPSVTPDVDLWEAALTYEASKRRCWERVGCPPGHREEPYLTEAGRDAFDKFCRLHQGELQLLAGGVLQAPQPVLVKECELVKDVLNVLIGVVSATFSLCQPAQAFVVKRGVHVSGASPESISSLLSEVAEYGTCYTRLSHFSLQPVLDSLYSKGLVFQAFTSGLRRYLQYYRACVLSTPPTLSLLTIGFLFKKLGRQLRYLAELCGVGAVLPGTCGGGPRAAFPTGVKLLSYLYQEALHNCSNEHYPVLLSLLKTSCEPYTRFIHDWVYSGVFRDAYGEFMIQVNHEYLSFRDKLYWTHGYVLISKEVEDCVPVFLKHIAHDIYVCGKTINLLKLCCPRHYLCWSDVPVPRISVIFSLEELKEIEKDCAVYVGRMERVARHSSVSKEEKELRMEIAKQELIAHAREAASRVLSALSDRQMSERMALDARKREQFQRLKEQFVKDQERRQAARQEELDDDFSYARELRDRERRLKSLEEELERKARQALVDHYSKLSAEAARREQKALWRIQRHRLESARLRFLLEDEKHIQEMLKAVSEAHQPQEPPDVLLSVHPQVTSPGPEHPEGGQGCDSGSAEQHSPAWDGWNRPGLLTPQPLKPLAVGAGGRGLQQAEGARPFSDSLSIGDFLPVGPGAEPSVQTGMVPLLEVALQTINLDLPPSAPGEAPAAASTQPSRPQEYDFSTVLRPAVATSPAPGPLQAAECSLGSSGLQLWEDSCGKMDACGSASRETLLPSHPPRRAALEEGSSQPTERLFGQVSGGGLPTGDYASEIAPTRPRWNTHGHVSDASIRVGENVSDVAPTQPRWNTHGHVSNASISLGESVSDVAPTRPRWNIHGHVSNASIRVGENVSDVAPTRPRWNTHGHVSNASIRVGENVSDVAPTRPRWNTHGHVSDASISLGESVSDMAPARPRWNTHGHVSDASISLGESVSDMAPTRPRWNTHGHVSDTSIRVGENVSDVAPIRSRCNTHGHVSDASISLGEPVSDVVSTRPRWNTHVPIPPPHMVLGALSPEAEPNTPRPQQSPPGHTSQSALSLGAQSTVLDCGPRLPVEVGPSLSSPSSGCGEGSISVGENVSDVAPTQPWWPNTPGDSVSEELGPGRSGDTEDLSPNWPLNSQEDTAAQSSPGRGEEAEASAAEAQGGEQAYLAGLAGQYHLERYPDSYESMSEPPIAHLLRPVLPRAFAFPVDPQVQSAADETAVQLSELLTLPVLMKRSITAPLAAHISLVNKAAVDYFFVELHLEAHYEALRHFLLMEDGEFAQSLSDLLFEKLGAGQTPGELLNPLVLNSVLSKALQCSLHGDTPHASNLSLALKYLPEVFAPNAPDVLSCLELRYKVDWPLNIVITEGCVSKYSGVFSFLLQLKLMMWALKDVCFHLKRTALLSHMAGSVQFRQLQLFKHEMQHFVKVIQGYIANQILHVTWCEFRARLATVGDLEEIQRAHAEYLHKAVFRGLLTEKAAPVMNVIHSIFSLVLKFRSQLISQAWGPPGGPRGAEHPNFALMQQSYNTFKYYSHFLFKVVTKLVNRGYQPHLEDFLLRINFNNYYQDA
UniProt Q6IBS0: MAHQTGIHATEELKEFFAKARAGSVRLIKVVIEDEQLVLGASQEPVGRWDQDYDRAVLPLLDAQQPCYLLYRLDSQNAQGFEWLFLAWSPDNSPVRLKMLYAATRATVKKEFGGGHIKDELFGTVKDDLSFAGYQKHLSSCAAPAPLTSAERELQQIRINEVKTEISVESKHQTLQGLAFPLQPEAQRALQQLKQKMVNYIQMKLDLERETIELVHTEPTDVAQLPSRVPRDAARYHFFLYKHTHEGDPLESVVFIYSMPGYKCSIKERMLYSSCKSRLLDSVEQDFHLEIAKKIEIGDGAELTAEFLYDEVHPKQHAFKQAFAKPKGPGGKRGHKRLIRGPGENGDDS

What was measured:
Test in all cases: log2 fold change, soluble protein after heating vs DMSO (PISA); higher = thermal stabilisation; K562 lysate, 10 uM; active = over 0.2 and 3.5 SD of the protein, either way, in both replicates (recomputed)
erlotinib = compound: C#Cc1cccc(Nc2ncnc3cc(OCCOC)c(OCCOC)cc23)c1 [erlotinib]
Summary of the method: (§1)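 The values are log-two fold changes in thermal stability compared with solvent controls and come from duplicates. They were obtained by TMTpro 16plex LC-MS/MS, with channel sums equalised, on the supernatant after 21,000xg for 90 min. That supernatant came from crude K562 extract at 1 mg/mL protein treated with 10 μM compound for 30 min, heated for 3 min across 48°C-58°C, pooled and brought to 0.5% NP-40 at 4°C.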

[1] = compound: C/C(=N\NC(=O)C1=CC(=CC=C1)S(=O)(=O)N2CCOCC2)/C3=C(C=CC(=C3)Cl)O
Summary of the method: as §1

[2] = compound: C1=CC(=CC=C1C2=NC3=C(N2)C=C(C=C3)C(=O)N)OC4=CC=C(C=C4)Cl
Summary of the method: as §1

[3] = compound: C1=CC2=C(C=CC(=C2)/C=C\3/C(=O)NC(=NCC4=CC=CS4)S3)N=C1
Summary of the method: as §1

[4] = compound: C1=CC2=NC=CN=C2C=C1/C=C/3\C(=O)NC(=O)S3
Summary of the method: as §1

[5] = compound: C1=CC=C(C=C1)C2=NC(=C(N2)C3=CC=NC=C3)C4=CC(=C(C=C4)Cl)O
Summary of the method: as §1

[6] = compound: C1=CC=C2C(=C1)C3=NNC4=CC=CC(=C43)C2=O
Summary of the method: as §1

[7] = compound: C1CCN(C1)C(=O)NC2=CC=CC(=C2)NC3=NC=C(C(=N3)NCCC4=CN=CN4)Br
Summary of the method: as §1

[8] = compound: C1CN(CCC1(CC2=CC=C(C=C2)Cl)N)C3=NC=NC4=C3C=CN4
Summary of the method: as §1

IRAK-1-4 Inhibitor I = compound: C1COCCN1CCN2C3=CC=CC=C3N=C2NC(=O)C4=CC(=CC=C4)[N+](=O)[O-] [IRAK-1-4 Inhibitor I]
Summary of the method: as §1

ibrutinib = compound: C=CC(=O)N1CCC[C@@H](n2nc(-c3ccc(Oc4ccccc4)cc3)c3c(N)ncnc32)C1 [ibrutinib]
Summary of the method: as §1

[9] = compound: CC(=O)c1cnc2ccc(-c3cc(Cl)c(O)c(Cl)c3)nc2c1N[C@H]1CC[C@H](CN(C)C)CC1
Summary of the method: as §1

ralimetinib = compound: CC(C)(C)Cn1c(N)nc2ccc(-c3[nH]c(C(C)(C)C)nc3-c3ccc(F)cc3)nc21 [ralimetinib]
Summary of the method: as §1

[10] = compound: CC(C)(O)CC(=O)NCCn1ccc2ncnc(Nc3ccc(Oc4cccc(C(F)(F)F)c4)c(Cl)c3)c21
Summary of the method: as §1

[11] = compound: CC(C)C1=C2N=C(C=C(N2N=C1)NCC3=CC=CC=C3)NCCCCCCN
Summary of the method: as §1

[12] = compound: CC1=C(C(CC(=O)N1)C2=CC=C(C=C2)C(F)(F)F)C(=O)NC3=C(C=C4C(=C3)C=NN4)F
Summary of the method: as §1

[13] = compound: CC1=C(C2=C(C=C1)C(=O)C3=CC=CC=C3N2CCCN)C
Summary of the method: as §1

[14] = compound: CC1=C(C=C(C=C1)NC(=O)C2=CC(=CC=C2)C(C)(C)C#N)NC3=CC4=C(C=C3)N=CN(C4=O)C
Summary of the method: as §1

[15] = compound: CC1=C(C=C(C=C1)NC(=O)C2=CC(=CC=C2)N(C)C)NC(=O)C3=CC=C(C=C3)O
Summary of the method: as §1

[16] = compound: CC1=CC=C(C=C1)SC2=C3C=C(SC3=CN=C2)C(=O)N
Summary of the method: as §1

Measured: log2 fold change

UBE3B (UniProt Q7Z3V4)
inactive: erlotinib -0.14 | [1] -0.218 | [2] -0.3 | [3] 0.056 | [4] 0.142 | [5] 0.011 | [6] -0.022 | [7] -0.04 | [8] -0.12 | IRAK-1-4 Inhibitor I 0.019 | ibrutinib 0.041 | [9] 0.019 | ralimetinib 0.02 | [10] -0.074 | [11] -0.112 | [12] 0.068 | [13] 0 | [14] -0.004 | [15] -0.022 | [16] 0.023

TYW3 (UniProt Q6IPR3)
inactive: erlotinib -0.002 | [1] 0.003 | [2] 0.063 | [3] -0.032 | [4] -0.008 | [5] 0.002 | [6] -0.07 | [7] -0.054 | [8] 0.014 | IRAK-1-4 Inhibitor I 0.018 | ibrutinib -0.052 | [9] -0.054 | ralimetinib -0.016 | [10] -0.081 | [11] 0.043 | [12] -0.015 | [13] -0.021 | [14] 0.025 | [15] 0.01 | [16] -0.004

TXNL4B (UniProt Q9NX01)
inactive: erlotinib -0.057 | [1] 0.081 | [2] 0.012 | [3] -0.117 | [4] -0.35 | [5] -0.019 | [6] 0.002 | [7] -0.102 | [8] -0.004 | IRAK-1-4 Inhibitor I -0.023 | ibrutinib 0.157 | [9] 0.002 | ralimetinib -0.013 | [10] -0.014 | [11] -0.034 | [12] 0.002 | [13] 0 | [14] 0.043 | [15] -0.033 | [16] 0.061

UBTF (UniProt P17480)
inactive: erlotinib 0.02 | [1] 0.015 | [2] 0.018 | [3] 0.03 | [4] -0.009 | [5] 0.002 | [6] 0.027 | [7] 0.009 | [8] -0.022 | IRAK-1-4 Inhibitor I -0.024 | ibrutinib 0.026 | [9] 0.025 | ralimetinib 0.017 | [10] -0.002 | [11] 0.016 | [12] 0.046 | [13] -0.075 | [14] -0.022 | [15] 0.044 | [16] -0.002

UBE2B (UniProt P63146)
inactive: erlotinib 0.004 | [1] 0.103 | [2] 0.054 | [3] 0.027 | [4] 0.002 | [5] -0.018 | [6] 0.033 | [7] 0.109 | [8] 0.017 | IRAK-1-4 Inhibitor I 0.01 | ibrutinib 0.013 | [9] 0.01 | ralimetinib -0.006 | [10] 0.022 | [11] -0.031 | [12] -0.005 | [13] -0.024 | [14] -0.02 | [15] 0.031 | [16] 0.024

TUT7 (UniProt Q5VYS8)
inactive: erlotinib 0.029 | [1] -0.107 | [2] -0.049 | [3] 0.052 | [4] 0.064 | [5] -0.025 | [6] -0.045 | [7] 0.022 | [8] 0.057 | IRAK-1-4 Inhibitor I 0.073 | ibrutinib 0.009 | [9] 0.025 | ralimetinib -0.054 | [10] -0.047 | [11] -0.013 | [12] -0.018 | [13] -0.279 | [14] 0.021 | [15] -0.066 | [16] -0.097

TUFM (UniProt P49411)
inactive: erlotinib 0.026 | [1] 0.023 | [2] 0.016 | [3] 0.01 | [4] 0.049 | [5] 0.005 | [6] -0.053 | [7] 0 | [8] -0.006 | IRAK-1-4 Inhibitor I -0.006 | ibrutinib 0.009 | [9] 0.011 | ralimetinib 0.011 | [10] 0.043 | [11] 0.017 | [12] -0.031 | [13] 0.012 | [14] -0.005 | [15] 0.035 | [16] 0.016

UCK2 (UniProt Q9BZX2)
inactive: erlotinib 0.011 | [1] 0.002 | [2] 0.025 | [3] -0.022 | [4] -0.07 | [5] -0.001 | [6] 0.072 | [7] -0.02 | [8] -0.015 | IRAK-1-4 Inhibitor I 0.007 | ibrutinib 0.073 | [9] 0.037 | ralimetinib 0.036 | [10] 0.022 | [11] 0.019 | [12] 0.022 | [13] -0.002 | [14] -0.015 | [15] 0.008 | [16] -0.01

UBE2D3 isoform 3 (UniProt P61077)
inactive: erlotinib 0.012 | [1] -0.002 | [2] 0.016 | [3] -0.031 | [4] -0.025 | [5] 0.03 | [6] -0.003 | [7] -0.035 | [8] 0.06 | IRAK-1-4 Inhibitor I 0.021 | ibrutinib 0.033 | [9] 0.014 | ralimetinib -0.026 | [10] -0.041 | [11] -0.013 | [12] -0.016 | [13] -0.029 | [14] 0.068 | [15] -0.005 | [16] -0.028

UAP1L1 (UniProt Q3KQV9)
inactive: erlotinib -0.044 | [1] 0.167 | [2] -0.046 | [3] 0.09 | [4] -0.015 | [5] 0.123 | [6] -0.031 | [7] -0.1 | [8] -0.045 | IRAK-1-4 Inhibitor I -0.087 | ibrutinib 0.016 | [9] -0.003 | ralimetinib 0.079 | [10] -0.034 | [11] -0.01 | [12] -0.002 | [13] 0.064 | [14] -0.047 | [15] -0.074 | [16] 0.088

Retrieved one by one from the entries so far, two records:
UAP1L1 (UniProt Q3KQV9)
inactive: erlotinib -0.044 | [1] 0.167 | [2] -0.046 | [3] 0.09 | [4] -0.015 | [5] 0.123 | [6] -0.031 | [7] -0.1 | [8] -0.045 | IRAK-1-4 Inhibitor I -0.087 | ibrutinib 0.016 | [9] -0.003 | ralimetinib 0.079 | [10] -0.034 | [11] -0.01 | [12] -0.002 | [13] 0.064 | [14] -0.047 | [15] -0.074 | [16] 0.088

TUT7 (UniProt Q5VYS8)
inactive: erlotinib 0.029 | [1] -0.107 | [2] -0.049 | [3] 0.052 | [4] 0.064 | [5] -0.025 | [6] -0.045 | [7] 0.022 | [8] 0.057 | IRAK-1-4 Inhibitor I 0.073 | ibrutinib 0.009 | [9] 0.025 | ralimetinib -0.054 | [10] -0.047 | [11] -0.013 | [12] -0.018 | [13] -0.279 | [14] 0.021 | [15] -0.066 | [16] -0.097

The listing continues:

TXNDC12 (UniProt O95881)
inactive: erlotinib -0.03 | [1] -0.034 | [2] -0.021 | [3] -0.012 | [4] 0.03 | [5] -0.008 | [6] 0.033 | [7] 0.025 | [8] -0.035 | IRAK-1-4 Inhibitor I 0.001 | ibrutinib 0.041 | [9] 0.043 | ralimetinib 0.024 | [10] 0.021 | [11] -0.014 | [12] 0 | [13] 0.031 | [14] 0 | [15] -0.033 | [16] 0.036

UBFD1 (UniProt O14562)
inactive: erlotinib 0.012 | [1] -0.005 | [2] 0.001 | [3] -0.023 | [4] -0.003 | [5] 0.006 | [6] 0 | [7] -0.009 | [8] 0.012 | IRAK-1-4 Inhibitor I 0.015 | ibrutinib 0.014 | [9] 0.008 | ralimetinib -0.004 | [10] -0.024 | [11] -0.003 | [12] -0.027 | [13] 0.012 | [14] 0.048 | [15] -0.03 | [16] -0.002

TUBB1 (UniProt Q9H4B7)
inactive: erlotinib 0.011 | [1] 0.091 | [2] 0.005 | [3] 0.01 | [4] 0.022 | [5] -0.011 | [6] 0.014 | [7] 0.015 | [8] 0.027 | IRAK-1-4 Inhibitor I 0.019 | ibrutinib -0.005 | [9] -0.01 | ralimetinib -0.003 | [10] -0.007 | [11] 0 | [12] 0.049 | [13] 0.028 | [14] -0.036 | [15] 0.002 | [16] 0.012

TUBA1C (UniProt Q9BQE3)
inactive: erlotinib 0.007 | [1] -0.028 | [2] 0.044 | [3] -0.019 | [4] -0.012 | [5] 0.031 | [6] -0.077 | [7] -0.008 | [8] 0.014 | IRAK-1-4 Inhibitor I 0.04 | ibrutinib -0.001 | [9] 0.017 | ralimetinib 0.007 | [10] -0.043 | [11] 0.032 | [12] 0.015 | [13] -0.035 | [14] -0.012 | [15] 0.043 | [16] 0.009

TUBGCP6 (UniProt Q96RT7)
inactive: erlotinib 0.012 | [1] -0.358 | [2] 0.008 | [3] 0.139 | [4] 0.022 | [5] -0.014 | [6] -0.097 | [7] -0.049 | [8] 0.022 | IRAK-1-4 Inhibitor I 0.132 | ibrutinib 0.09 | [9] -0.006 | ralimetinib -0.043 | [10] 0.065 | [11] 0.032 | [12] 0.015 | [13] -0.069 | [14] -0.2 | [15] 0.099 | [16] -0.11

TWF2 (UniProt Q6IBS0)
inactive: erlotinib -0.007 | [1] -0.001 | [2] 0.029 | [3] 0.002 | [4] -0.019 | [5] -0.008 | [6] 0.006 | [7] -0.007 | [8] 0.011 | IRAK-1-4 Inhibitor I 0.002 | ibrutinib -0.008 | [9] -0.008 | ralimetinib 0.01 | [10] 0.006 | [11] -0.01 | [12] -0.031 | [13] 0.006 | [14] 0.009 | [15] -0.013 | [16] 0
